The list is a part of this screen's results and no random one: it is rich in T/C values a quarter to a half above the control, in often repeated tests (any T/C) and in doses without a T/C. Further doses and runs are listed elsewhere. T/C is the treated group as % of the vehicle group. Some entries give survivors of the animals treated and no T/C: the source files T/C as zero there, which appears to mark a toxic dose or a test without result, not a measured value. Some doses without a T/C left all or most animals alive at the check, yet need not have been tolerated: the source hardly ever lists a survival T/C far under the control, and the zero likely stands for such cases as well. Counts of survivors are from the toxicity check (mostly the fifth day) where no day follows; animals may have died later. Schedules are NCI's codes, read here as Q, the interval in days (D) or hours (H), X, the number of doses. Brackets with × say how often a value occurs here. Some entries hold several experiments; the values are given in rising order. For survival time, the PubChem record calls one and a half times the control and up active, and a quarter to a half above the control has no call in these data; cut-offs in other NCI protocols can differ. Some T/C values are followed by the survivors on the day toxicity was checked, most often the fifth; without a count, all were alive then. *1 amine or outer side, *2 acyl side, *3 side chain or, on linkers, in order; H or OH if unused. Where a SMILES comes first, the peptide text is derived from it. Bridges are numbered along the chain shown (N, C = ends). Roman numbers before positions name the chains, in order. [ ]: non-standard residue; d: D form. Actinocin(9to1) = Cc1c2oc3c(C)ccc(C(=O)[*:1])c3nc-2c(C(=O)[*:2])c(N)c1=O; aThr = C[C@H](O)[C@H](N)C(=O)O; NMeV = CN[C@H](C(=O)O)C(C)C; Sar = CNCC(=O)O
System: B6C3F1 mice, B16 melanoma ip, median survival T/C
Test: NCI In Vivo Anticancer Drug Screen. Data for tumor model B16 Melanoma (intraperitoneal) in B6C3F1 mice
Conditions: T/C endpoint: median survival time, higher T/C = longer survival
Summary of the method: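 Mice bearing transplanted tumor were dosed with compound or vehicle, and survival was recorded. Activity is expressed as the treated-group measurement (T) divided by the vehicle control measurement (C).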

[1] = dose: 400.0 mg/kg/injection, schedule: Q01DX009 (ip), vehicle: saline with Tween-80
[2] = dose: 25.0 mg/kg/injection, schedule: Q01DX009 (ip), vehicle: Klucel (hydroxypropylcellulose) (HPC)
[3] = dose: 50.0 mg/kg/injection, schedule: Q01DX009 (ip), vehicle: Klucel (hydroxypropylcellulose) (HPC)
[4] = dose: 100.0 mg/kg/injection, schedule: Q01DX009 (ip), vehicle: saline with Tween-80
[5] = dose: 50.0 mg/kg/injection, schedule: Q01DX009 (ip), vehicle: saline
[6] = dose: 100.0 mg/kg/injection, schedule: Q01DX009 (ip), vehicle: saline
[7] = dose: 200.0 mg/kg/injection, schedule: Q01DX009 (ip), vehicle: saline
[8] = dose: 200.0 mg/kg/injection, schedule: Q01DX009 (oral), vehicle: saline
[9] = dose: 12.0 mg/kg/injection, schedule: Q01DX009 (ip), vehicle: Klucel (hydroxypropylcellulose) (HPC)

For CC(=O)c1ccc([NH-])c([NH-])c1.[Cl][Pt+2][Cl], the T/C (dose: 20.0 mg/kg/injection, schedule: Q01DX009 (ip), vehicle: distilled water + Tween-80) was 128 % of control, the T/C (dose: 40.0 mg/kg/injection, schedule: Q01DX009 (ip), vehicle: distilled water + Tween-80) was 128 % of control and the T/C (dose: 80.0 mg/kg/injection, schedule: Q01DX009 (ip), vehicle: distilled water + Tween-80) was 128 and 142 % of control. For the same molecule, the T/C (dose: 160.0 mg/kg/injection, schedule: Q01DX009 (ip), vehicle: distilled water + Tween-80) was 132 % of control.
CC1=CC(=O)C(O)C2(C)C1CC1OC(=O)C(OC(=O)CC(C)(C)O)C3C(C)C(O)C4(O)OCC13C42 (centres undefined) was tested, and the survivor count (dose: 8.0 mg/kg/injection, schedule: Q01DX009 (ip), vehicle: saline + alcohol) was 6 of 10.
Nc1cc(Cl)c(N=Nc2ccccc2)c(N)n1 was tested, and the survivor count [1] was 8 of 10.
In the case of Cc1c2oc3c(C)ccc(C(=O)N[C@@H]4C(=O)N[C@H](C(C)C)C(=O)N5CCC[C@H]5C(=O)N(C)CC(=O)N(C)[C@@H](C(C)C)C(=O)O[C@H]4C)c3nc-2c(C(=O)N[C@@H]2C(=O)N[C@H](C(C)C)C(=O)N3CCC[C@H]3C(=O)N(C)CC(=O)N(C)[C@@H](C(C)C)C(=O)O[C@H]2C)c(N)c1=O (I: [aThr][dV]P[Sar][NMeV] / II: [aThr][dV]P[Sar][NMeV]; ester I:1-I:C, II:1-II:C; linker I:N-II:N via Actinocin(9to1)), the T/C (dose: 12.5 micrograms/kg/injection, schedule: Q01DX009 (ip), vehicle: saline + alcohol, evaluated on day 45) was 132 % of control, the T/C (dose: 12.5 micrograms/kg/injection, schedule: Q01DX009 (ip), vehicle: saline + alcohol, evaluated on day 60) was 142 % of control and the T/C (dose: 12.5 micrograms/kg/injection, schedule: Q01DX009 (ip), vehicle: water) was 136 % of control. The T/C (dose: 25.0 micrograms/kg/injection, schedule: Q01DX009 (ip), vehicle: saline + alcohol, evaluated on day 40) was 130 % of control, the T/C (dose: 25.0 micrograms/kg/injection, schedule: Q01DX009 (ip), vehicle: saline + alcohol, evaluated on day 45) was 127 % of control and the T/C (dose: 25.0 micrograms/kg/injection, schedule: Q01DX009 (ip), vehicle: saline + alcohol, evaluated on day 60) was 147 % of control. The T/C (dose: 50.0 micrograms/kg/injection, schedule: Q01DX009 (ip), vehicle: saline + alcohol, evaluated on day 40) was 136 % of control, the T/C (dose: 50.0 micrograms/kg/injection, schedule: Q01DX009 (ip), vehicle: saline + alcohol, evaluated on day 45) was 137 % of control and the survivor count (dose: 100.0 micrograms/kg/injection, schedule: Q01DX009 (ip), vehicle: saline + alcohol) was 10 of 10. For the same molecule, the survivor count (dose: 200.0 micrograms/kg/injection, schedule: Q01DX009 (ip), vehicle: saline + alcohol) was 10 of 10, the survivor count (dose: 200.0 micrograms/kg/injection, schedule: Q01DX009 (ip), vehicle: water) was 10 of 10 and the survivor count (dose: 400.0 micrograms/kg/injection, schedule: Q01DX009 (ip), vehicle: saline + alcohol) was 7 of 10 and 10 of 10. The survivor count (dose: 400.0 micrograms/kg/injection, schedule: Q01DX009 (ip), vehicle: water) was 9 of 10.
In the case of CC[C@H](CC[C@@H](C)[C@H]1CC[C@H]2[C@@H]3CC=C4C[C@@H](OC(C)=O)CC[C@]4(C)[C@H]3CC[C@]12C)C(C)C, the survivor count [2] was 10 of 10, the survivor count [3] was 10 of 10 and the survivor count (dose: 100.0 mg/kg/injection, schedule: Q01DX009 (ip), vehicle: Klucel (hydroxypropylcellulose) (HPC)) was 10 of 10. For the same molecule, the survivor count (dose: 200.0 mg/kg/injection, schedule: Q01DX009 (ip), vehicle: Klucel (hydroxypropylcellulose) (HPC)) was 10 of 10.
For COC(=O)C(Cc1ccc(O)cc1)NC(=O)C(Cc1ccccc1)NC(C)=O (stereo not drawn) (Ac-Phe-Tyr-OMe; configuration not given here), the survivor count (dose: 400.0 mg/kg/injection, schedule: Q01DX009 (ip), vehicle: Klucel (hydroxypropylcellulose) (HPC)) was 8 of 8.
For CN(C)N=Nc1ccc(C(N)=O)cc1, the T/C (dose: 7.5 mg/kg/injection, schedule: Q01DX009 (ip), vehicle: saline with Tween-80) was 125 % of control and the survivor count (dose: 161.0 mg/kg/injection, schedule: Q01DX009 (ip), vehicle: saline with Tween-80) was 10 of 10.
Cc1c2cc(Cl)c3ccccc3c2c[n+]2ccccc12 was tested, and the survivor count [4] was 10 of 10.
C=C(C)[C@@H]1CCc2c(O)c(O)c(=O)cc(C)c2C1 was tested, and the T/C [5] was 131 % of control [8 of 9 alive], the T/C [4] was 126 % of control and the T/C [6] was 134 % of control. The survivor count [7] was 10 of 10.
CCCCCCCCCCCCN1C(C)=CS/C1=C\C=C\c1scc(C)[n+]1CCCCCCCCCCCC was tested, and the survivor count (dose: 3.12 mg/kg/injection, schedule: Q01DX009 (ip), vehicle: saline with Tween-80) was 10 of 10, the survivor count (dose: 6.25 mg/kg/injection, schedule: Q01DX009 (ip), vehicle: saline with Tween-80) was 4 of 10 and 10 of 10 and the survivor count (dose: 12.0 mg/kg/injection, schedule: Q01DX009 (ip), vehicle: saline with Tween-80) was 1 of 10. The survivor count (dose: 12.5 mg/kg/injection, schedule: Q01DX009 (ip), vehicle: saline with Tween-80) was 3 of 10 and the survivor count (dose: 25.0 mg/kg/injection, schedule: Q01DX009 (ip), vehicle: saline with Tween-80) was 0 of 10.
CC[C@](O)(C(=O)O)c1cc2n(c(=O)c1CO)Cc1cc3ccccc3nc1-2 was tested, and the survivor count (dose: 6.0 mg/kg/injection, schedule: Q01DX009 (ip), vehicle: water) was 10 of 10, the survivor count (dose: 12.0 mg/kg/injection, schedule: Q01DX009 (ip), vehicle: water) was 10 of 10 and the survivor count (dose: 24.0 mg/kg/injection, schedule: Q01DX009 (ip), vehicle: water) was 10 of 10.
With N#C[C@H](OC1OC(COC2OC(CO)C(O)C(O)C2O)C(O)C(O)C1O)c1ccccc1 (some centres undefined) the T/C (dose: 25.0 mg/kg/injection, schedule: Q01DX009 (ip), vehicle: saline) was 89, 94, 96, 112 % of control, the T/C [5] was 87, 104, 105, 122 % of control and the T/C [6] was 98 [9 of 10 alive], 102, 127, 150 % of control. The T/C (dose: 100.0 mg/kg/injection, schedule: Q01DX009 (oral), vehicle: saline) was 98, 99, 104, 112 % of control, the T/C [7] was 90, 105, 106, 123 % of control [9 of 10 alive] and the T/C [8] was 97 [8 of 10 alive], 100 [8 of 10 alive], 122 % of control. For the same molecule, the survivor count [8] was 5 of 10, the T/C (dose: 400.0 mg/kg/injection, schedule: Q01DX009 (ip), vehicle: saline) was 90, 94, 103 [7 of 10 alive], 126 % of control and the survivor count (dose: 400.0 mg/kg/injection, schedule: Q01DX009 (oral), vehicle: saline) was 1 of 10, 2 of 10, 3 of 10. The T/C (dose: 800.0 mg/kg/injection, schedule: Q01DX009 (ip), vehicle: saline) was 90, 93 [8 of 10 alive], 101, 102 % of control, the survivor count (dose: 800.0 mg/kg/injection, schedule: Q01DX009 (oral), vehicle: saline) was 0 of 10 and the survivor count (dose: 1600.0 mg/kg/injection, schedule: Q01DX009 (oral), vehicle: saline) was 0 of 10. For the same molecule, the survivor count (dose: 3200.0 mg/kg/injection, schedule: Q01DX009 (oral), vehicle: saline) was 0 of 10.
In the case of CC1=CC(=NN=c2cc(C)n([O-])c(C)c2)C=C(C)[N+]1=O, the T/C (dose: 200.0 mg/kg/injection, schedule: Q01DX009 (ip), vehicle: saline with Tween-80) was 129 % of control, the survivor count (dose: 200.0 mg/kg/injection, schedule: Q01DX009 (ip), vehicle: suspension in saline) was 7 of 10 and the survivor count [1] was 4 of 10. For the same molecule, the survivor count (dose: 400.0 mg/kg/injection, schedule: Q01DX009 (ip), vehicle: suspension in saline) was 0 of 10.
In the case of COC1CC2C=C(C)/C=C/C=C/C(=O)NC(c3ccccc3)C/C=C/CCC(O)CC(=O)C2=C1O (centres undefined), the T/C (dose: 3.12 mg/kg/injection, schedule: Q01DX009 (ip), vehicle: Klucel (hydroxypropylcellulose) (HPC)) was 137 % of control, the T/C (dose: 6.0 mg/kg/injection, schedule: Q01DX009 (ip), vehicle: Klucel (hydroxypropylcellulose) (HPC)) was 134 % of control and the T/C (dose: 6.25 mg/kg/injection, schedule: Q01DX009 (ip), vehicle: Klucel (hydroxypropylcellulose) (HPC)) was 143 % of control. The T/C [9] was 138 % of control, the survivor count [9] was 10 of 10 and the survivor count (dose: 24.0 mg/kg/injection, schedule: Q01DX009 (ip), vehicle: Klucel (hydroxypropylcellulose) (HPC)) was 3 of 10, 6 of 10, 10 of 10. For the same molecule, the survivor count [2] was 10 of 10 (2×) and the survivor count [3] was 3 of 10.

From PubChem BioAssay AID200 (DTP/NCI, 2004)
